{"source": "PubChem BioAssay AID652243 – Drosophila RNAi Screening Center, 2013", "aim": "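Fly genes required for human androgen receptor driven transcription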 (primary screen)", "cell system": "Drosophila S2R+ cells", "reagents": "long dsRNA against Drosophila genes", "time to read-out": "72 h (48 h, then 24 h hormone)", "challenge": "synthetic androgen R1881 at 10 nM for 24 h", "measurement": "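Per-well raw luminescence of the androgen-driven firefly reporter and of the Renilla control, two replicates each, without normalisation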", "reading the numbers": "firefly reporter light: higher = more light from androgen-responsive reporter; Renilla control light: higher = more constitutive control signal (cell number, transfection)", "call rule": "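Across duplicate plates, a knock-down whose log firefly/Renilla ratio shifted a set fold down or up from the GFP/LacZ control mean was a hit; the downward cut appears as both 1.5 and 3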", "meaning of the calls": "active = hit: reporter lowered or raised; inactive = no hit", "note": "The deposit covers about 24,000 reagents; shown is a random part of those that have a named target and a result. Of all reagents, 246 (1%) were called active. 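Plates not normalised; calls are printed but the firefly/Renilla ratio behind them is not deposited; fold cut for lowering reported inconsistently.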 The raw values are shown without normalisation. Unmarked entries are inactive. Not given: the amount of reagent."}
{"target":"Clp","amplicon":"DRSC00746","firefly reporter light, replicate 1":1.23e5,"firefly reporter light, replicate 2":88918,"Renilla control light, replicate 1":7.86e5,"Renilla control light, replicate 2":7.61e5}
{"target":"CG13110","amplicon":"DRSC02208","firefly reporter light, replicate 1":3.09e5,"firefly reporter light, replicate 2":4.84e5,"Renilla control light, replicate 1":1.99e6,"Renilla control light, replicate 2":3.12e6}
{"target":"CG15375","amplicon":"DRSC18045","firefly reporter light, replicate 1":2.82e5,"firefly reporter light, replicate 2":4.16e5,"Renilla control light, replicate 1":3.32e6,"Renilla control light, replicate 2":4.42e6}
{"target":"CG15375","amplicon":"DRSC29860","firefly reporter light, replicate 1":7.78e5,"firefly reporter light, replicate 2":6.49e5,"Renilla control light, replicate 1":1.01e6,"Renilla control light, replicate 2":1.61e6}
{"target":"ase","amplicon":"DRSC18739","firefly reporter light, replicate 1":2.11e5,"firefly reporter light, replicate 2":2.45e5,"Renilla control light, replicate 1":3.26e6,"Renilla control light, replicate 2":2.66e6}
{"target":"Pgam5","amplicon":"DRSC18551","firefly reporter light, replicate 1":1.09e5,"firefly reporter light, replicate 2":58806,"Renilla control light, replicate 1":7.52e5,"Renilla control light, replicate 2":5.54e5}
{"target":"GNBP1","amplicon":"DRSC11169","firefly reporter light, replicate 1":2.71e5,"firefly reporter light, replicate 2":2.64e5,"Renilla control light, replicate 1":3.05e6,"Renilla control light, replicate 2":2.50e6}
{"target":"GNBP1","amplicon":"DRSC21836","firefly reporter light, replicate 1":8.33e5,"firefly reporter light, replicate 2":7.56e5,"Renilla control light, replicate 1":2.04e6,"Renilla control light, replicate 2":1.80e6}
{"target":"CG6325","amplicon":"DRSC16020","firefly reporter light, replicate 1":97925,"firefly reporter light, replicate 2":35784,"Renilla control light, replicate 1":9.40e5,"Renilla control light, replicate 2":5.12e5}
{"target":"DIP-alpha","amplicon":"DRSC17891","firefly reporter light, replicate 1":5.22e5,"firefly reporter light, replicate 2":3.68e5,"Renilla control light, replicate 1":3.43e6,"Renilla control light, replicate 2":3.97e6}
{"target":"DIP-alpha","amplicon":"DRSC23275","firefly reporter light, replicate 1":5.06e5,"firefly reporter light, replicate 2":5.72e5,"Renilla control light, replicate 1":1.47e6,"Renilla control light, replicate 2":1.57e6}
{"target":"ppan","amplicon":"DRSC17030","firefly reporter light, replicate 1":3.16e5,"firefly reporter light, replicate 2":3.00e5,"Renilla control light, replicate 1":3.23e6,"Renilla control light, replicate 2":2.82e6}
{"target":"ppan","amplicon":"DRSC28476","firefly reporter light, replicate 1":4.13e5,"firefly reporter light, replicate 2":5.15e5,"Renilla control light, replicate 1":9.36e5,"Renilla control light, replicate 2":1.28e6}
{"target":"Idgf5","amplicon":"DRSC06919","firefly reporter light, replicate 1":4.20e5,"firefly reporter light, replicate 2":4.22e5,"Renilla control light, replicate 1":9.04e5,"Renilla control light, replicate 2":7.16e5}
{"target":"Idgf5","amplicon":"DRSC26392","firefly reporter light, replicate 1":3.12e5,"firefly reporter light, replicate 2":3.04e5,"Renilla control light, replicate 1":5.87e5,"Renilla control light, replicate 2":5.78e5}
{"target":"CG46339","amplicon":"DRSC14136","firefly reporter light, replicate 1":84891,"firefly reporter light, replicate 2":67476,"Renilla control light, replicate 1":6.79e5,"Renilla control light, replicate 2":6.13e5}
{"target":"CG46339","amplicon":"DRSC24047","firefly reporter light, replicate 1":2.69e5,"firefly reporter light, replicate 2":1.70e5,"Renilla control light, replicate 1":6.02e5,"Renilla control light, replicate 2":2.82e5}
{"target":"SuUR","amplicon":"DRSC11292","firefly reporter light, replicate 1":2.49e5,"firefly reporter light, replicate 2":2.79e5,"Renilla control light, replicate 1":3.31e6,"Renilla control light, replicate 2":1.53e6}
{"target":"CkIIalpha-i3","amplicon":"DRSC08651","firefly reporter light, replicate 1":3.89e5,"firefly reporter light, replicate 2":7.95e5,"Renilla control light, replicate 1":1.43e6,"Renilla control light, replicate 2":1.44e6}
{"target":"Try29F","amplicon":"DRSC03466","firefly reporter light, replicate 1":2.41e5,"firefly reporter light, replicate 2":1.85e5,"Renilla control light, replicate 1":1.75e6,"Renilla control light, replicate 2":1.40e6}
{"target":"Try29F","amplicon":"DRSC25721","firefly reporter light, replicate 1":3.29e5,"firefly reporter light, replicate 2":2.54e5,"Renilla control light, replicate 1":7.33e5,"Renilla control light, replicate 2":5.40e5}

An excerpt from above, showing only “firefly reporter light, replicate 1”:
ase [DRSC18739] = 2.11e5
Pgam5 [DRSC18551] = 1.09e5
GNBP1 [DRSC11169] = 2.71e5
